According to article PMC9578707:
Results are given in words; binding and its absence hold for the method and conditions named. Some results given as binding are weak or reduced against the parent protein; the word gives no strength.

The chains behind the UniProt entries cited, without tags or fusion partners. Residues count along the entry.
UniProt P16671: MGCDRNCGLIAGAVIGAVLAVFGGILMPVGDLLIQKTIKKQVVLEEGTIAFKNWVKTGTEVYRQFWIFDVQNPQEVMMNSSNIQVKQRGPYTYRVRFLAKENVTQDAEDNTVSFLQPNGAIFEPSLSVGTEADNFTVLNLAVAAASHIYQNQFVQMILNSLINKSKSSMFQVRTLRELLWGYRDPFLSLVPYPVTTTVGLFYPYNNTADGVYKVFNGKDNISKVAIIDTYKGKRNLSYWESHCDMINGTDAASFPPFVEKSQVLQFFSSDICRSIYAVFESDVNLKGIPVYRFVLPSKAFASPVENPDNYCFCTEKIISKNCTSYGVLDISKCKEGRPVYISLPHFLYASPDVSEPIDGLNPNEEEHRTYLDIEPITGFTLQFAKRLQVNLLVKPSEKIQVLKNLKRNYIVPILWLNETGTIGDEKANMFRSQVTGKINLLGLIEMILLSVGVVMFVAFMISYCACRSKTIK
UniProt P18433, residues 20-802: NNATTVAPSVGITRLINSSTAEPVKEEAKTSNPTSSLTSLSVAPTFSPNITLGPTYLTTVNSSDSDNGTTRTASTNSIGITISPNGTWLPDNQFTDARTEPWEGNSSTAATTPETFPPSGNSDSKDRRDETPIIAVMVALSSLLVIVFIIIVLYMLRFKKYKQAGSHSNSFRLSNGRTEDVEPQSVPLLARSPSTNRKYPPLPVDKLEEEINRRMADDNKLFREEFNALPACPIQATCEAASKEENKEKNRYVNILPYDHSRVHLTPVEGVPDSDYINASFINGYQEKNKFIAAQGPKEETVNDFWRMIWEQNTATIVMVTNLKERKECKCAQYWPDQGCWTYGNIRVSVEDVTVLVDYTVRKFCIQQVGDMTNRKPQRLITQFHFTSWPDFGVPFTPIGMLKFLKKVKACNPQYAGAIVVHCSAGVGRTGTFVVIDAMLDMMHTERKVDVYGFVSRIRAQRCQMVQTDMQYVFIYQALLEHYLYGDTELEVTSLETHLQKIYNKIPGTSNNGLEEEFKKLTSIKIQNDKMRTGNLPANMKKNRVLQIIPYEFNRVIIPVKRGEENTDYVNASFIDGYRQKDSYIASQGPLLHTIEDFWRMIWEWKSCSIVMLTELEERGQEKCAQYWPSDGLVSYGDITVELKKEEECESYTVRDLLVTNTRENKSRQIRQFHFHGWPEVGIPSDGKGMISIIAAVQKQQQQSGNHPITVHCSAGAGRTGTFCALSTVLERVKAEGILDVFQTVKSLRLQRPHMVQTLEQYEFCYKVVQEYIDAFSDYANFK

What was measured:
[1] = molecular target: full-length CD36 (human) (UniProt P16671); assay: flow cytometry on cells; ligand tetramerised on streptavidin-Alexa647 (400 nM) on 293F cells transfected with full-length CD36 against control cells; 1 hr, 4°C, MACS buffer; only the binder purified
[2] = molecular target: CD36 (CRISPRa-induced on K562 cells) (human (endogenous in K562)) (UniProt P16671); assay: CRISPRa enrichment screen (magnetic bead selection of cells, deep sequencing of sgRNAs); biotinylated ligand (1 µM) on streptavidin microbeads with K562 sunCas9 cells carrying pooled sgRNA libraries (mini-library, TM1 or TM2+); 4°C, 30 min, MACS buffer; up to three rounds of MACS positive selection; hits called with casTLE and ESP score; only the binder purified
[3] = molecular target: FLAG-tagged full-length PTPRA (human) (UniProt P18433); assay: flow cytometry on cells; ligand tetramerised on streptavidin-Alexa647 (4:1), titrated 1:1 from 200 or 400 nM tetramer, on K562 cells lentivirally transduced with FLAG-tagged full-length receptor against untransduced K562; 4°C, MACS buffer; only the binder purified
[4] = molecular target: T1, PTPRJ ECD (human) (UniProt Q12913); assay: SPR; Biacore T100; biotinylated receptor ECD or hit protein captured on a streptavidin chip (~100-200 RU), non-biotinylated secreted ligand as analyte in twofold dilutions; HBS-P+ buffer; 1:1 Langmuir model or equilibrium fit; both purified
T1 sequence (chain, biotin where captured on the streptavidin chip): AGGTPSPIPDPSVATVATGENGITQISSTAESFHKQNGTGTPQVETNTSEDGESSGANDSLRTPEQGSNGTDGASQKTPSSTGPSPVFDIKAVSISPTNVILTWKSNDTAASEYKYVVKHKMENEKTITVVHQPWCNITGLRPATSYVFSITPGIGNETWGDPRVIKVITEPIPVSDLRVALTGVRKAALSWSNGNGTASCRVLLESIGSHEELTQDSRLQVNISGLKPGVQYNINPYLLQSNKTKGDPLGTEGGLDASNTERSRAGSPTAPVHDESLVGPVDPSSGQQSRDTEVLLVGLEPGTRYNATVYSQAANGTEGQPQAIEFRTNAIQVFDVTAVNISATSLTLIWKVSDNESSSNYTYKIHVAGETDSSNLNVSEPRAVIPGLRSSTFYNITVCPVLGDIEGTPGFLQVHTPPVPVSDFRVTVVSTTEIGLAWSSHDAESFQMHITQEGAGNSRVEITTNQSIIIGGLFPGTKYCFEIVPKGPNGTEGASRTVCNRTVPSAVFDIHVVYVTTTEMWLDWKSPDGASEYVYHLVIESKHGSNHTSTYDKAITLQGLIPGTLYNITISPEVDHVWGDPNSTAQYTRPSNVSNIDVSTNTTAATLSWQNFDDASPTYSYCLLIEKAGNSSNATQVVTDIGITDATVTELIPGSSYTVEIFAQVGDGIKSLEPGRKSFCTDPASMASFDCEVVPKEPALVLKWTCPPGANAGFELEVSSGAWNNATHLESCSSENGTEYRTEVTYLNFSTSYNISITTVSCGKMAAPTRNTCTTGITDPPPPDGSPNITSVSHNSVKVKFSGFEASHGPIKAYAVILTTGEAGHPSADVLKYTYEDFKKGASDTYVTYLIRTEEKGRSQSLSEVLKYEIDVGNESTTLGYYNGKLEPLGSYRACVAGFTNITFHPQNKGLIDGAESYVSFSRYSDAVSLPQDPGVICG

[5] = molecular target: T2, human PTPRU-ECD (human) (UniProt Q92729); assay: as above
T2 sequence (chain, biotin where captured on the streptavidin chip): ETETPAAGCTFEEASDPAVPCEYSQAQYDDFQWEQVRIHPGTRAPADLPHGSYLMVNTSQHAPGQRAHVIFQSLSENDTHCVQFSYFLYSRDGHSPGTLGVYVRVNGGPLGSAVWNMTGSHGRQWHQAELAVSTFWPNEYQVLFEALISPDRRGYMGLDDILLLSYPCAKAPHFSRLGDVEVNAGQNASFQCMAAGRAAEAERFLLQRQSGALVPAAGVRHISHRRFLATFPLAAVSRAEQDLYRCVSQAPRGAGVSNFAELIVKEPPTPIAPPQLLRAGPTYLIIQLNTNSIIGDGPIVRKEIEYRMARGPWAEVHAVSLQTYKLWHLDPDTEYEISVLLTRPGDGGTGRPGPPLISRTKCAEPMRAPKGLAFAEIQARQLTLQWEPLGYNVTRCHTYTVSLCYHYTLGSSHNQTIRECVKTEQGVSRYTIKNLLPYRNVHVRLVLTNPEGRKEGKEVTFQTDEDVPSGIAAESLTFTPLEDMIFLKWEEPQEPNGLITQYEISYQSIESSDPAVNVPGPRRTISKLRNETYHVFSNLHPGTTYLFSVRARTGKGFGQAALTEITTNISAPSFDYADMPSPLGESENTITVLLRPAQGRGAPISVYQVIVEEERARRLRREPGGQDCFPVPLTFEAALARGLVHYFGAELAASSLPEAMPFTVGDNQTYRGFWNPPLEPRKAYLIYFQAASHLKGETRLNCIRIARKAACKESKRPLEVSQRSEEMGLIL

[6] = molecular target: PTPRA (CRISPRa-induced on K562 cells) (human (endogenous in K562)) (UniProt P18433); assay: CRISPRa enrichment screen (magnetic bead selection of cells, deep sequencing of sgRNAs); biotinylated ligand (1 µM) on streptavidin microbeads with K562 sunCas9 cells carrying pooled sgRNA libraries (mini-library, TM1 or TM2+); 4°C, 30 min, MACS buffer; up to three rounds of MACS positive selection; hits called with casTLE and ESP score; only the binder purified

B1: LY6H (ligand, UniProt O94772 26-115)
chain: LWCQDCTLTTNSSHCTPKQCQPSDTVCASVRITDPSSSRKDHSVNKMCASSCDFVKRHFFSDYLMGFINSGILKVDVDCCEKDLCNGAAG
modifications: biotin (biotinylated in vitro with BirA)
With B1 the binding [1] was “binds” and the binding [2] was “binds”.

B2: NRN1 (ligand, UniProt Q9NPD7 28-116)
chain: AGKCDAVFKGFSDCLLKLGDSMANYPQGLDDKTNIKTVCTYWEDFHSCTVTALTDCQEGAKDMWDKLRKESKNLNIQGSLFELCGSGNG
modifications: biotin (biotinylated in vitro with BirA)
For B2, the binding [1] was “binds” and the binding [2] was “binds”.

B3: VWC2L (ligand, UniProt B2RUY7 22-222)
chain: AAISHEDYPADEGDQISSNDNLIFDDYRGKGCVDDSGFVYKLGERFFPGHSNCPCVCALDGPVCDQPECPKIHPKCTKVEHNGCCPECKEVKNFCEYHGKNYKILEEFKPSPCEWCRCEPSNEVHCVVADCAVPECVNPVYEPEQCCPVCKNGPNCFAGTTIIPAGIEVKVDECNICHCHNGDWWKPAQCSKRECQGKQTV
modifications: biotin (biotinylated in vitro with BirA)
In the case of B3, the binding [1] is reported as “binds” and the binding [2] is reported as “binds”.

B4: SCRG1 (ligand, UniProt O75711 21-98)
chain: MPANRLSCYRKILKDHNCHNLPEGVADLTQIDVNVQDHFWDGKGCEMICYCNFSELLCCPKDVFFGPKISFVIPCNNQ
modifications: biotin (biotinylated in vitro with BirA)
With B4 the binding [1] was “binds” and the binding [2] was “binds”.

B5: growth arrest specific 1 protein (ligand, UniProt P54826 40-317)
chain: LAHGRRLICWQALLQCQGEPECSYAYNQYAEACAPVLAQHGGGDAPGAAAAAFPASAASFSSRWRCPSHCISALIQLNHTRRGPALEDCDCAQDENCKSTKRAIEPCLPRTSGGGAGGPGAGGVMGCTEARRRCDRDSRCNLALSRYLTYCGKVFNGLRCTDECRTVIEDMLAMPKAALLNDCVCDGLERPICESVKENMARLCFGAELGNGPGSSGSDGGLDDYYDEDYDDEQRTGGAGGEQPLDDDDGVPHPPRPGSGAAASGGRGDLPYGPGRRS
modifications: biotin (biotinylated in vitro with BirA) where used on beads or as tetramer
With B5 the binding [3] was “binds”, the binding [4] was “no binding” and the binding [5] was “no binding”. For the same binder, the binding [6] was “binds”.

B6: SPRC (ligand, UniProt P09486 18-303)
chain: APQQEALPDETEVVEETVAEVTEVSVGANPVQVEVGEFDDGAEETEEEVVAENPCQNHHCKHGKVCELDENNTPMCVCQDPTSCPAPIGEFEKVCSNDNKTFDSSCHFFATKCTLEGTKKGHKLHLDYIGPCKYIPPCLDSELTEFPLRMRDWLKNVLVTLYERDEDNNLLTEKQKLRVKKIHENEKRLEAGDHPVELLARDFEKNYNMYIFPVHWQFGQLDQHPIDGYLSHTELAPLRAPLIPMEHCTTRFFETCDLDNDKYIALDEWAGCFGIKQKDIDKDLVI
modifications: biotin (biotinylated in vitro with BirA)
B6 was tested, and the binding [1] was “no binding (tested: 400 nM tetramer)” and the binding [2] was “no binding”.
